1 substance from article PMC3937361 can be followed below.

No constants are given. Whether binding was seen depends on the method and setting. In cells and extracts the contact can be indirect. Binding calls can cover weak binding; strength is not graded here.

The target in the assay is T1, outer membrane protein A (OmpA), endogenous in S. flexneri HND115 (S. flexneri (endogenous in HND115)).
T1 sequence: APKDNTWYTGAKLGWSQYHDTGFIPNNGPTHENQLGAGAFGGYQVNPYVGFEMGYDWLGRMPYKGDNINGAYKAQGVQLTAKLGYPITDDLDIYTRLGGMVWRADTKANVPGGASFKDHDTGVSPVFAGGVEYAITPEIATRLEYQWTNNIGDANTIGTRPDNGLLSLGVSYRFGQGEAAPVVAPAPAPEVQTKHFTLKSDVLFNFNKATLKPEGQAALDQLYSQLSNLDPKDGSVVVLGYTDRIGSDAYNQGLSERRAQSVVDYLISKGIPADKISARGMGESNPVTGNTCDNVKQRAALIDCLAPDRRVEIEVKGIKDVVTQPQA
The assay is described as follows: cross-linking; in vivo, 1% formaldehyde for 15 min at room temperature on S. flexneri HND115 or HND93 carrying the plasmids, PBS pH 6.8; samples heated at 37°C (cross-links kept) or 95°C (broken); blots with anti-HA and anti-OmpA.

For the substance “PhoN2-HA R192P (pHND19_(R192P)) (S. flexneri)”, the binding result is listed as “binds”.
